Taken from: PubChem BioAssay AID1671195 (Yale University, 2021)

Purpose: 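Regulators of LDL receptor activity judged by labelled LDL uptake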 (primary screen)
System: human Huh7 hepatoma cells
Reagents: siRNA pool against human genes, 18 nM
Duration: about 2 to 2.5 days of knockdown, then 8 h LDL uptake
Challenge: DiI-labelled LDL at 30 µg/ml for 8 h, in lipoprotein-deficient serum medium
Read-out: 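Per-cell DiI-LDL intensity by automated imaging; well means scaled to the plate median and given as a robust z-score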
Scale: robust z-score: higher = more LDL uptake after knockdown
Active means: 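Active when two or more replicates show a robust z-score above 2 or below -2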
This is one part, drawn at random, of about 22,000 reagents. In the full data, about 1,510 (6.9%) were called active. 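Active includes knockdowns raising or lowering LDL uptake; positive z-scores mean more uptake, negative mean less.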 Reagent sequences are not shown.

no.	target	robust z-score, replicate 1	robust z-score, replicate 2	robust z-score, replicate 3	activity call
1	RPSAP24 (ribosomal protein SA pseudogene 24)	-0.366	-1.37	-1.27	inactive
2	OR6C74 (olfactory receptor family 6 subfamily C member 74)	0.375	-0.0478	0.324	inactive
3	DMBX1 (diencephalon/mesencephalon homeobox 1)	-0.727	-0.00721	-0.846	inactive
4	XPO5 (exportin 5)	-2.13	-1.37	-1.44	inactive
5	TFG (trafficking from ER to golgi regulator)	0.602	0.846	-0.447	inactive
6	LOC387864 (retired record)	-1.11	-1.58	-1.19	inactive
7	NET1 (neuroepithelial cell transforming 1)	-1.47	-0.744	2.58	inactive
8	SNAPIN (SNAP associated protein)	0.349	-0.787	-0.0383	inactive
9	GPR85 (G protein-coupled receptor 85)	1.83	0.156	0.998	inactive
10	HOXA11 (homeobox A11)	0.333	0.367	0.404	inactive
11	LOC440523 (retired record)	-1.66	-1.65	-1.79	inactive
12	PLD3 (phospholipase D family member 3)	-1.11	-0.899	-0.551	inactive

Part of the list above in another layout.
{"target": "XPO5 (exportin 5)", "robust z-score, replicate 1": -2.13, "robust z-score, replicate 2": -1.37, "robust z-score, replicate 3": -1.44, "activity call": "inactive"}
{"target": "TFG (trafficking from ER to golgi regulator)", "robust z-score, replicate 1": 0.602, "robust z-score, replicate 2": 0.846, "robust z-score, replicate 3": -0.447, "activity call": "inactive"}

Next entries:
no.	target	robust z-score, replicate 1	robust z-score, replicate 2	robust z-score, replicate 3	activity call
13	WBP2P1 (WW domain binding protein 2 pseudogene 1)	-0.284	-0.245	-0.775	inactive
14	PACS2 (phosphofurin acidic cluster sorting protein 2)	1.04	-0.67	6.33	inactive
15	EDIL3 (EGF like and discoidin domains 3)	-1.34	-1.44	-1.01	inactive
16	MX2 (MX dynamin like GTPase 2)	2.19	1.26	1.47	inactive
17	NCBP2L (nuclear cap binding protein subunit 2 like)	-1.41	-0.00573	-0.21	inactive
18	OR1J1 (olfactory receptor family 1 subfamily J member 1)	1.11	1.08	1.68	inactive
19	SPRY2 (sprouty RTK signaling antagonist 2)	-0.516	-1.73	-0.0146	inactive
20	LRRC14B (leucine rich repeat containing 14B)	0.701	0.776	1.35	inactive
21	LOC442369 (retired record)	-0.16	-0.0231	0.241	inactive
22	BEX2 (brain expressed X-linked 2)	0.546	1.35	0.549	inactive
23	CYP20A1 (cytochrome P450 family 20 subfamily A member 1)	-1.79	-2.17	-2.06	active
24	LOC440084	-1.51	-1.63	-1.48	inactive
25	FGD1 (FYVE, RhoGEF and PH domain containing 1)	-1.51	-0.906	-1.08	inactive
26	LOC440234 (retired record)	-2	-2.29	-2.04	active
27	LOC442070 (retired record)	-0.375	-0.96	-0.485	inactive
28	LOC441526 (retired record)	-0.826	-0.952	-0.824	inactive
